Experimental data reported in the supplement of paper PMC10849652.
Some of the results follow.

Chains of the proteins cited; added tags and fusions are not shown. Lines headed by an entry give the natural chain unless they say otherwise; changes in a name come on top.
UniProt Q9H0C2: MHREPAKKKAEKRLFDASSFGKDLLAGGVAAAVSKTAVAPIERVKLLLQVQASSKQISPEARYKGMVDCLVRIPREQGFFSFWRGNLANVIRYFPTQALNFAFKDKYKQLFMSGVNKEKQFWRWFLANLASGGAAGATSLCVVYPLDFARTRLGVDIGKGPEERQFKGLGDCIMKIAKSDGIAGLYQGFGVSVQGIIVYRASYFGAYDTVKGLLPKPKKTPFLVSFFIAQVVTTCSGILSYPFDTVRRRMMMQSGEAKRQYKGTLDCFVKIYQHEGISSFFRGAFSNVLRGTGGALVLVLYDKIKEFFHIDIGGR
UniProt Q9UHW9: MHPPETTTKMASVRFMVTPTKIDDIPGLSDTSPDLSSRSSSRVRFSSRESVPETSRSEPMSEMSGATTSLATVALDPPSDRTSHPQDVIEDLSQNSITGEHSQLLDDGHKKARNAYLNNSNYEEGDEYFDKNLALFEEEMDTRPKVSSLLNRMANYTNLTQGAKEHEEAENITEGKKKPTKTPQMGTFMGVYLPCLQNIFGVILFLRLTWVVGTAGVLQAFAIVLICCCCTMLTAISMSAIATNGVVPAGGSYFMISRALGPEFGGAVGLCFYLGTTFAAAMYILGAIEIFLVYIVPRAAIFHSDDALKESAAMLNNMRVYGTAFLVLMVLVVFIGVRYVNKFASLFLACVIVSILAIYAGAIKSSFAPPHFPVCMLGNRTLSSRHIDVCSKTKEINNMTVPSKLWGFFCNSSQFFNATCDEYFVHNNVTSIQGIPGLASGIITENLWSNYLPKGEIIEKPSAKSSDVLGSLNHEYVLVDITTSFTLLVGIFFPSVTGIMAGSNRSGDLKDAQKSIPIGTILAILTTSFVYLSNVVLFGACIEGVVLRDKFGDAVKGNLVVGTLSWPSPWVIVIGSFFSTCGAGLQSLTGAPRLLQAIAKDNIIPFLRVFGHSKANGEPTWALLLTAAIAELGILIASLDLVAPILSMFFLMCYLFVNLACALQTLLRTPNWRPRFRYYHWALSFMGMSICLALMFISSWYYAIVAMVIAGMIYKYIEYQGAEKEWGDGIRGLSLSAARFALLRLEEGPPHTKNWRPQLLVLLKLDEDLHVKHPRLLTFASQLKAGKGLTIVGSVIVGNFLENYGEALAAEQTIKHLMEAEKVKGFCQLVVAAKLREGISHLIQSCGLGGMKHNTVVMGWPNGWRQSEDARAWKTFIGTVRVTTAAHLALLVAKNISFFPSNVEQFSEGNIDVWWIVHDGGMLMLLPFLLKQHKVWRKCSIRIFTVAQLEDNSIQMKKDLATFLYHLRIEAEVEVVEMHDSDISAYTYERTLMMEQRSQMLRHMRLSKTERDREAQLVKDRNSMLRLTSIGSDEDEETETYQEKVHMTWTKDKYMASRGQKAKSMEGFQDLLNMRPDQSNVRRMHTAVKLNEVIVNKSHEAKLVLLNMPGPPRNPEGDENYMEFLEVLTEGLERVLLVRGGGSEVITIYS
UniProt Q6NXT4: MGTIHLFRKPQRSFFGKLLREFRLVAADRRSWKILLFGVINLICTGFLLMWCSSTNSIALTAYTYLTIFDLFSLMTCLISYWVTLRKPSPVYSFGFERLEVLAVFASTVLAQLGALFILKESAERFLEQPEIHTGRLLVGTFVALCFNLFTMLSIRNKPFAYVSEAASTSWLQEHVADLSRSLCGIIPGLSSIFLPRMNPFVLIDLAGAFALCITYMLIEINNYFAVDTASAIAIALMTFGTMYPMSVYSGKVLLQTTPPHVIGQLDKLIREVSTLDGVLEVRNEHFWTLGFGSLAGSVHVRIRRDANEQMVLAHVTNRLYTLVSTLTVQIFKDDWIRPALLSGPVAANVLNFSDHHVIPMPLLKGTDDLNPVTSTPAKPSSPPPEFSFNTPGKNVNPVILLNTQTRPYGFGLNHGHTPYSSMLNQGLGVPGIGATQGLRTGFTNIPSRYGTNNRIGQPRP
UniProt Q9Y6M5: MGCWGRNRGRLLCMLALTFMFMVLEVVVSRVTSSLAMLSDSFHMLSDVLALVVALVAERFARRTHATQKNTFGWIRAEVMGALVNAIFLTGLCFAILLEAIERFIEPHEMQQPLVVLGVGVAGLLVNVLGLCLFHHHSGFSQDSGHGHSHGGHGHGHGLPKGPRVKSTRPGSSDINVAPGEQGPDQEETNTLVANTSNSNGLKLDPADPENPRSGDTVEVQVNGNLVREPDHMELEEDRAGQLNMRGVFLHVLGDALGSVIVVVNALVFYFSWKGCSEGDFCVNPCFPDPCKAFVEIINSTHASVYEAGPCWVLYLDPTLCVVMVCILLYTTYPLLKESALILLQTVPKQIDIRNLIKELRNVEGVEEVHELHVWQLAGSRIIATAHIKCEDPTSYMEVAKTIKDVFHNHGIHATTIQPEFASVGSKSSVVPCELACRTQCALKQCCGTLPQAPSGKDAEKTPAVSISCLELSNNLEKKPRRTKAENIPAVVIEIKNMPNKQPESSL
UniProt Q8IXU6: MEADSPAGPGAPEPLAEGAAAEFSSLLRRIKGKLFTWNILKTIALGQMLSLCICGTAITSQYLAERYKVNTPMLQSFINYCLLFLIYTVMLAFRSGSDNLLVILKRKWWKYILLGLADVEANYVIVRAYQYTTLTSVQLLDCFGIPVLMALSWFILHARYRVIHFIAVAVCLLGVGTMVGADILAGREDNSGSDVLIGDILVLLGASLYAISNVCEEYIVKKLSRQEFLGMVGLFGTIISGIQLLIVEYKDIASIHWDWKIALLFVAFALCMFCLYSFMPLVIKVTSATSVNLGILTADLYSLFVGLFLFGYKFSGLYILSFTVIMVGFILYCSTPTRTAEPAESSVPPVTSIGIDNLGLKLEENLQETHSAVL
UniProt Q8NBI5: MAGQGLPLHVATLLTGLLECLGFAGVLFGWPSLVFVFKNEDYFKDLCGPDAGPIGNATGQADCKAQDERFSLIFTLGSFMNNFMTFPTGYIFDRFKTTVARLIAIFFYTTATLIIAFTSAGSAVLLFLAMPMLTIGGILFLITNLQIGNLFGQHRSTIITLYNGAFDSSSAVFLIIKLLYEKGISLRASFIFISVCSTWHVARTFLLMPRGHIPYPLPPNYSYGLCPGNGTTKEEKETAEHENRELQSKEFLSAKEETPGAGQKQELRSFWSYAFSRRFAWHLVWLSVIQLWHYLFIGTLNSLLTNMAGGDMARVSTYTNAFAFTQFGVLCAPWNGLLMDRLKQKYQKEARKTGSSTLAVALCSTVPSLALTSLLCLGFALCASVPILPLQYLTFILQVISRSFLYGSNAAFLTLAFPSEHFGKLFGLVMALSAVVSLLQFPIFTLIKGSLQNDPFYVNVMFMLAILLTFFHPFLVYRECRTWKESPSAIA
UniProt P55011: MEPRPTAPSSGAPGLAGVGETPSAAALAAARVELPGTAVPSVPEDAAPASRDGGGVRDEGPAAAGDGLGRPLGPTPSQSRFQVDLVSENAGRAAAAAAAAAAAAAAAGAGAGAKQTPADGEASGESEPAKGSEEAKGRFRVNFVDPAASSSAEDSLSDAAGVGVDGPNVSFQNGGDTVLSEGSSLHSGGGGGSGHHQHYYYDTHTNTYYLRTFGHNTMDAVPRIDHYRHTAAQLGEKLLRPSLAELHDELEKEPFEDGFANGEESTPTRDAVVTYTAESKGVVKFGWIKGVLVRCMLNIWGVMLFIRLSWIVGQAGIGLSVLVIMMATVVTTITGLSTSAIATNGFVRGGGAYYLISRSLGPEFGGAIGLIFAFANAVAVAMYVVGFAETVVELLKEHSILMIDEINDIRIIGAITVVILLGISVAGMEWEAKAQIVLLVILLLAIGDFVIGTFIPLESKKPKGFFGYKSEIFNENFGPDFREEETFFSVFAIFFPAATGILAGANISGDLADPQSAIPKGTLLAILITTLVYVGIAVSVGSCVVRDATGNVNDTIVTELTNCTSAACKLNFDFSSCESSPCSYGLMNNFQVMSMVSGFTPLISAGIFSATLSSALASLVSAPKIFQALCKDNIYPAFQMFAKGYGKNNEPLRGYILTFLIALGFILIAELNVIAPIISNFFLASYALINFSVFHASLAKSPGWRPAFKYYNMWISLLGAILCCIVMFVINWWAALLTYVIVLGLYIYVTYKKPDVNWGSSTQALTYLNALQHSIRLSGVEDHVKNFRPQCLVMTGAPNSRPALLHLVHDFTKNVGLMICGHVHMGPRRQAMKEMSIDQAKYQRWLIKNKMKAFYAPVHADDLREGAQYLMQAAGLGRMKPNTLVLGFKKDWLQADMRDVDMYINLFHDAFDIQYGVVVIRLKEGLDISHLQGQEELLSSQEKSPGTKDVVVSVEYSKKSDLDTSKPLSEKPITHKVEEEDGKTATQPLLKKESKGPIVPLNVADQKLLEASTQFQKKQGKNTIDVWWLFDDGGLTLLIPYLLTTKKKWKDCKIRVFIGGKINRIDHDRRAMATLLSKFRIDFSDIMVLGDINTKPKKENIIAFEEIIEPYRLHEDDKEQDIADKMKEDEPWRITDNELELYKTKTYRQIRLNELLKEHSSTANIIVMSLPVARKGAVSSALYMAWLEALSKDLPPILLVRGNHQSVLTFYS
UniProt Q9H936: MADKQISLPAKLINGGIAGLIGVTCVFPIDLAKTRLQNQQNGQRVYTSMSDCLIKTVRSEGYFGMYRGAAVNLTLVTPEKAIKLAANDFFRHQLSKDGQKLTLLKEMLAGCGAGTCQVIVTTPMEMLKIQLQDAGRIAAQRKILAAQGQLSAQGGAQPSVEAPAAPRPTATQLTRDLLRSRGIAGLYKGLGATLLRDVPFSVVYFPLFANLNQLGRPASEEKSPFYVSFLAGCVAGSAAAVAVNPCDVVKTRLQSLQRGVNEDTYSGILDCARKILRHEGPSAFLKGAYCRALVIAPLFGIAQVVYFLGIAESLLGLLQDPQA
UniProt O43772: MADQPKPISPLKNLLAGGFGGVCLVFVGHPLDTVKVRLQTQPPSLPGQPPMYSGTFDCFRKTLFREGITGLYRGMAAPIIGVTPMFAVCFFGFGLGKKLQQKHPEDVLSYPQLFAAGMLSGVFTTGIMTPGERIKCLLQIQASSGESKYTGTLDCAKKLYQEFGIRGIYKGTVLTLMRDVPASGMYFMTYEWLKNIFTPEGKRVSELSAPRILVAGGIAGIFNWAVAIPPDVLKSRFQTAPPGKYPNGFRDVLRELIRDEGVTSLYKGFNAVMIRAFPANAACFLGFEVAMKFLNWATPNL
UniProt Q9BXS9: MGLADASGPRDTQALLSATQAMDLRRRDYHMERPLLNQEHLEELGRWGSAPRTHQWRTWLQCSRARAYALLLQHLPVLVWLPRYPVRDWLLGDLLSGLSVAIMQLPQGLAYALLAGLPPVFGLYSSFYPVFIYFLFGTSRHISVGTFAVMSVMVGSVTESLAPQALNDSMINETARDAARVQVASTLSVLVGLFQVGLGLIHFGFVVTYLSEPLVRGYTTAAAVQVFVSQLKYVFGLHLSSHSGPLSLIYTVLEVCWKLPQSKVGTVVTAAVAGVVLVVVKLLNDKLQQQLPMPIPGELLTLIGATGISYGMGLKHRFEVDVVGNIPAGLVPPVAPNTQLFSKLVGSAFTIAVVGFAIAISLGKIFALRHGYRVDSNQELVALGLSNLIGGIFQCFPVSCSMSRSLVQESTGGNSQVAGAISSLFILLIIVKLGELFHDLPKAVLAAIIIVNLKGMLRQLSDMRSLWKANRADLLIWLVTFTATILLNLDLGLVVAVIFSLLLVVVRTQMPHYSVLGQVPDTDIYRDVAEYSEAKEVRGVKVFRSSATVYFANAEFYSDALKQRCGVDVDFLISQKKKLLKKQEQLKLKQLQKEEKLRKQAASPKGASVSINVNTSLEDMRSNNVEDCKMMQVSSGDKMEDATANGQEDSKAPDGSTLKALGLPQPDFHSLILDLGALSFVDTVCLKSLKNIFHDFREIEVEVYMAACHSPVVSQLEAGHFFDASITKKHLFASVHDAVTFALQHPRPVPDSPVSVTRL
UniProt O43826: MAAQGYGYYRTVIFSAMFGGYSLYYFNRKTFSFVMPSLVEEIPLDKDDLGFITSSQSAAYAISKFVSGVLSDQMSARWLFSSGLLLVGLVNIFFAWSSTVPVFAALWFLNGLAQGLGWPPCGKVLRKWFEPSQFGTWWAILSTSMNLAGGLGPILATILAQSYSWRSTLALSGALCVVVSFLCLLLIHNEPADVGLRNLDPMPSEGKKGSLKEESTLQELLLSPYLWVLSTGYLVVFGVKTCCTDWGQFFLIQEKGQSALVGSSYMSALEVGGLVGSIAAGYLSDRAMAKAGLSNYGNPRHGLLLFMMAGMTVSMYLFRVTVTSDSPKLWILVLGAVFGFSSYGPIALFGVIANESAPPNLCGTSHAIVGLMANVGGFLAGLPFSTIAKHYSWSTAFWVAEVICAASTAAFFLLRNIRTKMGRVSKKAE

Legend:
Assay in all cases: log2 fold change, soluble protein after heating vs DMSO (PISA); higher = thermal stabilisation; K562 cells, 10 uM, 30 min; active = over 0.2 and 3.5 SD of the protein, either way, in both replicates (recomputed)
[1] = compound: CC1=C(C=C(C=C1)NC(=O)C2=CC(=CC=C2)C(C)(C)C#N)NC3=CC4=C(C=C3)N=CN(C4=O)C
In short: (§1)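 Aliquots of K562 cells (2×10^6 cells/mL) treated with 10 μM compound for 30 min were heated for 3 min over 48°C-58°C. After pooling and extraction in PBS with 0.5% NP-40 at 4°C, soluble protein from a 21,000xg, 90 min spin was quantified by TMTpro 16plex LC-MS/MS with channel sums equalised. Thermal stability is expressed against control samples, from duplicates, as a log2 fold change.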

[2] = compound: CC1=C(C=C(C=C1)NC(=O)C2=CC(=CC=C2)N(C)C)NC(=O)C3=CC=C(C=C3)O
In short: as §1

[3] = compound: CC1=CC=C(C=C1)SC2=C3C=C(SC3=CN=C2)C(=O)N
In short: as §1

[4] = compound: CC1=NC(=CC=C1)C2=C(N=C(N2)C(C)(C)C)C3=CC4=NC=CN=C4C=C3
In short: as §1

[5] = compound: CCCCN(Cc1ccc(C(=O)NO)cc1)C(=O)Nc1ccccc1 [Nexturastat A]
In short: as §1

[6] = compound: CCCS(=O)(=O)Nc1ccc(F)c(C(=O)c2c[nH]c3ncc(-c4ccc(Cl)cc4)cc23)c1F [vemurafenib]
In short: as §1

[7] = compound: CCCS(=O)(=O)Nc1ccc(F)c(C(=O)c2c[nH]c3ncc(Cl)cc23)c1F
In short: as §1

[8] = compound: CCCc1cc(C)[nH]c(=O)c1CNC(=O)c1cc(-c2ccnc(N3CCN(C)CC3)c2)cc2c1cnn2C(C)C
In short: as §1

[9] = compound: CCN(CC)Cc1ccc2cc(COC(=O)Nc3ccc(C(=O)NO)cc3)ccc2c1 [givinostat]
In short: as §1

[10] = compound: CCN(CCCOc1ccc2c(Nc3cc(CC(=O)Nc4cccc(F)c4)[nH]n3)ncnc2c1)CCOP(=O)(O)O [barasertib]
In short: as §1

[11] = compound: CC[C@@H]1C(=O)N(C)c2cnc(Nc3ccc(C(=O)NC4CCN(C)CC4)cc3OC)nc2N1C1CCCC1
In short: as §1

[12] = compound: CC[C@@H]1C(=O)N(C)c2cnc(Nc3ccc(C(=O)N[C@H]4CC[C@H](N5CCN(CC6CC6)CC5)CC4)cc3OC)nc2N1C(C)C [volasertib]
In short: as §1

[13] = compound: CC[C@H](C)N1C=C(C2=C(C=C(C=C21)C3=CN=C(C=C3)N4CCNCC4)C(=O)NCC5=C(C=C(NC5=O)C)C)C
In short: as §1

[14] = compound: CC[C@H](C)[C@@H](C(=O)N[C@@H]([C@@H](C)O)C(=O)N[C@@H](CC(C)C)C(=O)[C@]1(CO1)C)NC(=O)[C@H]([C@@H](C)CC)N(C)C(=O)C [epoxomicin]
In short: as §1

[15] = compound: CCn1c(C(=O)N(C2CC2)C2CC2)cc2c3c(ncn3C)c(Nc3cc(C)n(C)n3)nc21
In short: as §1

[16] = compound: CCn1cc(-c2ccnc3[nH]c(-c4cccc(CN(C)C)c4)cc23)c(-c2ccc(NC(=O)N(C)C)cc2)n1
In short: as §1

[17] = compound: CN(C)CC(=O)Nc1ccc2[nH]c(=O)c3ccccc3c2c1
In short: as §1

[18] = compound: CN(CCOC1=CC=C(C=C1)C[C@H]2C(=O)NC(=O)S2)C3=CC=CC=N3 (racemic) [rosiglitazone]
In short: as §1

[19] = compound: CN1C2=C(C3=C1C(=O)N(N=C3)CC4=CC(=CC=C4)N)SC(=C2)S(=O)C
In short: as §1

[20] = compound: CN1CCC(CNc2ccc3ncc(-c4cccc(OC(F)(F)F)c4)n3n2)CC1
In short: as §1

Measured: log2 fold change

SLC25A31 (UniProt Q9H0C2)
inactive: [1] 0.045 | [2] -0.001 | [3] 0.03 | [4] 0.004 | [5] -0.028 | [6] 0.011 | [7] 0.014 | [8] -0.031 | [9] 0 | [10] 0 | [11] 0.01 | [12] 0.063 | [13] -0.044 | [14] 0.009 | [15] 0.018 | [16] -0.021 | [17] -0.013 | [18] -0.008 | [19] -0.024 | [20] 0.048

SLC5A6 (UniProt Q9Y289)
inactive: [1] -0.002 | [2] -0.015 | [3] 0.295 | [4] 0.035 | [5] 0.012 | [6] 0.004 | [7] -0.037 | [8] -0.02 | [9] 0.019 | [10] -0.035 | [11] 0.063 | [12] -0.021 | [13] -0.013 | [14] -0.008 | [15] 0.024 | [16] -0.069 | [17] -0.01 | [18] 0.033 | [19] -0.056 | [20] 0.152

SLC12A6 isoform 2 (UniProt Q9UHW9)
inactive: [1] -0.028 | [2] 0.024 | [3] 0.034 | [4] 0.013 | [5] 0.009 | [6] 0.014 | [7] 0.023 | [8] -0.044 | [9] -0.006 | [10] -0.041 | [11] 0.016 | [12] -0.04 | [13] 0.016 | [14] 0.02 | [15] 0.058 | [16] -0.033 | [17] 0.041 | [18] -0.067 | [19] -0.025 | [20] -0.025

SLC39A6 (UniProt Q13433)
inactive: [1] -0.09 | [2] -0.076 | [3] -0.028 | [4] 0.037 | [5] -0.05 | [6] -0.068 | [7] -0.039 | [8] -0.149 | [9] 0.029 | [10] -0.095 | [11] 0.134 | [12] 0.019 | [13] 0.005 | [14] 0.011 | [15] 0 | [16] -0.088 | [17] 0.035 | [18] 0.064 | [19] 0.122 | [20] 0.137

SLC25A1 (UniProt P53007)
inactive: [1] -0.04 | [2] 0.046 | [3] 0.041 | [4] 0.024 | [5] -0.036 | [6] 0.007 | [7] 0.023 | [8] -0.028 | [9] -0.039 | [10] -0.004 | [11] -0.008 | [12] -0.031 | [13] -0.029 | [14] 0.014 | [15] 0.03 | [16] -0.004 | [17] 0.004 | [18] 0.005 | [19] -0.038 | [20] 0.097

SLC30A6 isoform 2 (UniProt Q6NXT4)
inactive: [1] -0.054 | [2] -0.106 | [3] 0.017 | [4] -0.024 | [5] 0.005 | [6] -0.16 | [7] -0.017 | [8] -0.169 | [9] 0 | [10] -0.013 | [11] 0.051 | [12] -0.051 | [13] 0.002 | [14] 0.015 | [15] -0.055 | [16] 0.047 | [17] -0.146 | [18] 0.137 | [19] 0.022 | [20] 0.145

SLC30A1 (UniProt Q9Y6M5)
inactive: [1] -0.01 | [2] -0.016 | [3] -0.056 | [4] 0.009 | [5] -0.069 | [6] 0.018 | [7] -0.04 | [8] -0.076 | [9] 0.006 | [10] -0.014 | [11] 0.041 | [12] 0.081 | [13] -0.037 | [14] -0.042 | [15] 0.006 | [16] -0.034 | [17] -0.004 | [18] -0.026 | [19] -0.054 | [20] 0.149

SLC35F2 (UniProt Q8IXU6)
inactive: [1] -0.089 | [2] -0.046 | [3] -0.042 | [4] -0.093 | [5] -0.032 | [6] -0.003 | [7] -0.024 | [8] -0.077 | [9] 0 | [10] -0.064 | [11] 0.059 | [12] 0.024 | [13] -0.006 | [14] -0.088 | [15] 0.023 | [16] -0.003 | [17] 0.041 | [18] -0.026 | [19] -0.003 | [20] 0.107

SLC43A3 isoform 2 (UniProt Q8NBI5)
inactive: [1] -0.049 | [2] 0.05 | [3] -0.003 | [4] 0.015 | [5] -0.019 | [6] -0.066 | [7] -0.032 | [8] -0.019 | [9] -0.042 | [10] 0.001 | [11] 0.048 | [12] 0.089 | [13] -0.056 | [14] -0.02 | [15] 0.064 | [16] -0.008 | [17] -0.027 | [18] -0.054 | [19] -0.05 | [20] 0.145

2 consecutive entries out of the list so far, quoted:
SLC35F2 (UniProt Q8IXU6)
inactive: [1] -0.089 | [2] -0.046 | [3] -0.042 | [4] -0.093 | [5] -0.032 | [6] -0.003 | [7] -0.024 | [8] -0.077 | [9] 0 | [10] -0.064 | [11] 0.059 | [12] 0.024 | [13] -0.006 | [14] -0.088 | [15] 0.023 | [16] -0.003 | [17] 0.041 | [18] -0.026 | [19] -0.003 | [20] 0.107

SLC43A3 isoform 2 (UniProt Q8NBI5)
inactive: [1] -0.049 | [2] 0.05 | [3] -0.003 | [4] 0.015 | [5] -0.019 | [6] -0.066 | [7] -0.032 | [8] -0.019 | [9] -0.042 | [10] 0.001 | [11] 0.048 | [12] 0.089 | [13] -0.056 | [14] -0.02 | [15] 0.064 | [16] -0.008 | [17] -0.027 | [18] -0.054 | [19] -0.05 | [20] 0.145

Next results follow:

SLC12A2 (UniProt P55011)
inactive: [1] 0.013 | [2] -0.009 | [3] 0.007 | [4] -0.027 | [5] 0.01 | [6] 0.015 | [7] -0.003 | [8] -0.026 | [9] -0.004 | [10] -0.019 | [11] 0.053 | [12] 0.005 | [13] 0 | [14] -0.014 | [15] 0.017 | [16] -0.066 | [17] -0.012 | [18] 0.011 | [19] -0.065 | [20] 0.138

SLC25A22 (UniProt Q9H936)
inactive: [1] 0.007 | [2] 0 | [3] -0.009 | [4] 0.002 | [5] -0.099 | [6] -0.04 | [7] -0.018 | [8] -0.049 | [9] -0.012 | [10] -0.011 | [11] 0.01 | [12] 0.024 | [13] -0.039 | [14] 0.006 | [15] 0.015 | [16] 0.007 | [17] -0.017 | [18] 0.013 | [19] -0.025 | [20] -0.027

SLC2A3 (UniProt P11169)
inactive: [1] 0.062 | [2] 0.009 | [3] 0.025 | [4] -0.016 | [5] -0.066 | [6] 0 | [7] -0.013 | [8] -0.024 | [9] -0.028 | [10] -0.006 | [11] 0.077 | [12] 0.088 | [13] -0.03 | [14] 0.005 | [15] 0.007 | [16] -0.015 | [17] -0.003 | [18] -0.019 | [19] -0.055 | [20] 0.19

SLC25A20 (UniProt O43772)
inactive: [1] -0.026 | [2] 0.042 | [3] 0.025 | [4] -0.008 | [5] -0.082 | [6] -0.039 | [7] 0.056 | [8] -0.023 | [9] -0.043 | [10] 0 | [11] 0.062 | [12] 0.01 | [13] -0.056 | [14] -0.029 | [15] 0.02 | [16] 0.001 | [17] -0.017 | [18] 0.001 | [19] -0.003 | [20] 0.107

SLC22A18 (UniProt Q96BI1)
inactive: [1] 0.031 | [2] -0.091 | [3] -0.002 | [4] -0.01 | [5] -0.018 | [6] 0.017 | [7] 0 | [8] 0.014 | [9] -0.017 | [10] 0.03 | [11] 0.021 | [12] -0.029 | [13] -0.067 | [14] -0.034 | [15] 0.076 | [16] -0.053 | [17] 0.024 | [18] -0.005 | [19] 0.006 | [20] 0.048

SLC26A6 (UniProt Q9BXS9)
inactive: [1] -0.074 | [2] 0.016 | [3] -0.15 | [4] 0.024 | [5] -0.077 | [6] -0.01 | [7] -0.006 | [8] -0.057 | [9] -0.1 | [10] -0.024 | [11] 0.042 | [12] 0.031 | [13] -0.01 | [14] 0.087 | [15] -0.009 | [16] -0.007 | [17] 0.042 | [18] 0.057 | [19] 0.081 | [20] 0.025

SLC37A4 isoform 2 (UniProt O43826)
inactive: [1] 0.01 | [2] 0.087 | [3] 0.065 | [4] -0.037 | [5] -0.054 | [6] -0.017 | [7] 0.079 | [8] -0.038 | [9] -0.02 | [10] 0.01 | [11] 0.041 | [12] -0.048 | [13] -0.04 | [14] -0.029 | [15] 0.002 | [16] 0.022 | [17] 0.058 | [18] -0.063 | [19] -0.023 | [20] 0.008
